Substitutions are numbered along the chain they refer to. These are yes or no findings as the source states them, for the method shown. In cells and extracts the contact can be indirect. Some entries that bind do so weakly or less than the wild type. Tags and fused reporters may be left off the sequences shown.

Holding throughout (test): co-IP
In assay [1] the target is T1, GFP-WDR41-PIP (WDR41 PQLC2-interacting peptide, 364-373, as a GFP fusion).
T1 sequence: TGFFNMWGFG

Assay [2] deals with T2, GFP fusion of the entire WDR41 7CD loop sequence (354-393) (UniProt Q9HAD4).
T2 sequence: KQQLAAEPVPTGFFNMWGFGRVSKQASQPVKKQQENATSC

For assay [3], the target named is T3, WDR41-HA F372A (UniProt Q9HAD4).
T3 sequence: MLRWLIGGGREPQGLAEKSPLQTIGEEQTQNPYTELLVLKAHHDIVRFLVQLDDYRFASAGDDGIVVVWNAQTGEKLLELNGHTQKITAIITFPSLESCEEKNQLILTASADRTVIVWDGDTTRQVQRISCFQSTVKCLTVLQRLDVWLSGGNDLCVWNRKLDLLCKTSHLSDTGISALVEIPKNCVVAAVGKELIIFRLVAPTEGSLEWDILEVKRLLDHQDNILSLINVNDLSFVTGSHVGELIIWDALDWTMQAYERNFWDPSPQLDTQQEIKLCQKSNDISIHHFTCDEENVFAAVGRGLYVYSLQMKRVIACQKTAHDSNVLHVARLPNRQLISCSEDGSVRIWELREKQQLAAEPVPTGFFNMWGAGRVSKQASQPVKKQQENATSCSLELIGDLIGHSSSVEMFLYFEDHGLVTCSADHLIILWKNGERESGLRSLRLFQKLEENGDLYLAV

In assay [4] the target is T4, WDR41-HA with glycine 373 substituted by valine (UniProt Q9HAD4).
T4 sequence: T3 sequence with A372F, G373V

In assay [5] the target is T5, WDR41-HA with complete deletion of the 7CD loop (residues 354-393) (UniProt Q9HAD4).
T5 sequence: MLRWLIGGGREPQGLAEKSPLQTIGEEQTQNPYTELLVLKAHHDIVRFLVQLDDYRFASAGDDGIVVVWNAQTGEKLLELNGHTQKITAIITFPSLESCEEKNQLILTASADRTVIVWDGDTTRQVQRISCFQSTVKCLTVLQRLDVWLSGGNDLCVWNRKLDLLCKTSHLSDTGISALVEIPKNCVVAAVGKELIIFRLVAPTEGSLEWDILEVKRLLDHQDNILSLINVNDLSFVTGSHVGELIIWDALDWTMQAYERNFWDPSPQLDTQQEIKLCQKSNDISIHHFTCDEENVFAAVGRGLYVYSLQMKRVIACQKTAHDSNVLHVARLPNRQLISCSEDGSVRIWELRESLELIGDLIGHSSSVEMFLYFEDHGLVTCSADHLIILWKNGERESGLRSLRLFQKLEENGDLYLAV

In assay [6] the target is T6, WDR41-HA F367A (UniProt Q9HAD4).
T6 sequence: T3 sequence with F367A, A372F

Assay [7] concerns the target T7, WDR41-HA N368A (UniProt Q9HAD4).
T7 sequence: T3 sequence with N368A, A372F

B1: PQLC2-FLAG wild type (protein, UniProt Q6ZP29 1-291)
chain: MVWKKLGSRNFSSCPSGSIQWIWDVLGECAQDGWDEASVGLGLISILCFAASTFPQFIKAYKTGNMDQALSLWFLLGWIGGDSCNLIGSFLADQLPLQTYTAVYYVLADLVMLTLYFYYKFRTRPSLLSAPINSVLLFLMGMACATPLLSAAGPVAAPREAFRGRALLSVESGSKPFTRQEVIGFVIGSISSVLYLLSRLPQIRTNFLRKSTQGISYSLFALVMLGNTLYGLSVLLKNPEEGQSEGSYLLHHLPWLVGSLGVLLLDTIISIQFLVYRRSTAASELEPLLPS
B1: the binding entry in assay [1] is “binds”; in assay [2] it was “binds”; in assay [3], “no binding”; in assay [4] it was “binds”; in assay [5] it was “no binding”; in assay [6], “no binding”. For the same molecule, the binding result in assay [7] is “no binding”.

B2: SMCR8 (protein, UniProt Q8TEV9 1-937)
chain: MISAPDVVAFTKEEEYEEEPYNEPALPEEYSVPLFPFASQGANPWSKLSGAKFSRDFILISEFSEQVGPQPLLTIPNDTKVFGTFDLNYFSLRIMSVDYQASFVGHPPGSAYPKLNFVEDSKVVLGDSKEGAFAYVHHLTLYDLEARGFVRPFCMAYISADQHKIMQQFQELSAEFSRASECLKTGNRKAFAGELEKKLKDLDYTRTVLHTETEIQKKANDKGFYSSQAIEKANELASVEKSIIEHQDLLKQIRSYPHRKLKGHDLCPGEMEHIQDQASQASTTSNPDESADTDLYTCRPAYTPKLIKAKSTKCFDKKLKTLEELCDTEYFTQTLAQLSHIEHMFRGDLCYLLTSQIDRALLKQQHITNFLFEDFVEVDDRMVEKQESIPSKPSQDRPPSSSLEECPIPKVLISVGSYKSSVESVLIKMEQELGDEEYKEVEVTELSSFDPQENLDYLDMDMKGSISSGESIEVLGTEKSTSVLSKSDSQASLTVPLSPQVVRSKAVSHRTISEDSIEVLSTCPSEALIPDDFKASYPSAINEEESYPDGNEGAIRFQASISPPELGETEEGSIENTPSQIDSSCCIGKESDGQLVLPSTPAHTHSDEDGVVSSPPQRHRQKDQGFRVDFSVENANPSSRDNSCEGFPAYELDPSHLLASRDISKTSLDNYSDTTSYVSSVASTSSDRIPSAYPAGLSSDRHKKRAGQNALKFIRQYPFAHPAIYSLLSGRTLVVLGEDEAIVRKLVTALAIFVPSYGCYAKPVKHWASSPLHIMDFQKWKLIGLQRVASPAGAGTLHALSRYSRYTSILDLDNKTLRCPLYRGTLVPRLADHRTQIKRGSTYYLHVQSMLTQLCSKAFLYTFCHHLHLPTHDKETEELVASRQMSFLKLTLGLVNEDVRVVQYLAELLKLHYMQESPGTSHPMLRFDYVPSFLYKI
On to B2, for which the binding result was “no binding” in assay [1]; “no binding” in assay [2]; “binds” in assay [3]; “binds” in assay [4]; “binds” in assay [5]; “binds” in assay [6]. In assay [7], the binding result is “binds”.

The values are drawn from paper doi:10.1101/2020.07.15.204800 (bioRxiv, 2020).
